Most values lie at the level of the controls, where differences are scatter.
Tests used:
Assay in all cases: normalised response (% of control), CellTox Green; higher = less cell death (100 = DMSO, 0 = benzethonium chloride kill control)
Details in all cases: incubation time: 72 h
BT-474 [1] = tested on: BT-474
Experimental: (§1)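 DSRT, 72 h incubation, CellTox Green / CellTiter-Glo readout. Signal is normalised to DMSO and benzethonium chloride controls. Value is the normalised response at the lowest tested concentration.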

MDA-MB-453 [2] = tested on: MDA-MB-453
Experimental: as §1

HCC1599 [3] = tested on: HCC1599
Experimental: as §1

BT-549 [4] = tested on: BT-549
Experimental: as §1

CAL-51 [5] = tested on: CAL-51
Experimental: as §1

MFM-223 [6] = tested on: MFM-223
Experimental: as §1

HCC1143 [7] = tested on: HCC1143
Experimental: as §1

MCF-10A [8] = tested on: MCF-10A
Experimental: as §1

HDQ-P1 [9] = tested on: HDQ-P1
Experimental: as §1

DU-4475 [10] = tested on: DU-4475
Experimental: as §1

Hs578T [11] = tested on: Hs578T
Experimental: as §1

CAL-120 [12] = tested on: CAL-120
Experimental: as §1

CAL-85-1 [13] = tested on: CAL-85-1
Experimental: as §1

CAL-148 [14] = tested on: CAL-148
Experimental: as §1

HCC1937 [15] = tested on: HCC1937
Experimental: as §1

MDA-MB-468 [16] = tested on: MDA-MB-468
Experimental: as §1

MDA-MB-231 [17] = tested on: MDA-MB-231
Experimental: as §1

MDA-MB-436 [18] = tested on: MDA-MB-436
Experimental: as §1

BT-474 [19] = tested on: BT-474; remark: listed apart in the source
Experimental: (§2)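 DSRT, 72 h incubation, CellTox Green / CellTiter-Glo readout. Signal is normalised to DMSO and benzethonium chloride controls. Value is the normalised response at dose 2.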

MDA-MB-453 [20] = tested on: MDA-MB-453; remark: listed apart in the source
Experimental: as §2

HCC1599 [21] = tested on: HCC1599; remark: listed apart in the source
Experimental: as §2

BT-549 [22] = tested on: BT-549; remark: listed apart in the source
Experimental: as §2

CAL-51 [23] = tested on: CAL-51; remark: listed apart in the source
Experimental: as §2

MFM-223 [24] = tested on: MFM-223; remark: listed apart in the source
Experimental: as §2

HCC1143 [25] = tested on: HCC1143; remark: listed apart in the source
Experimental: as §2

MCF-10A [26] = tested on: MCF-10A; remark: listed apart in the source
Experimental: as §2

HDQ-P1 [27] = tested on: HDQ-P1; remark: listed apart in the source
Experimental: as §2

DU-4475 [28] = tested on: DU-4475; remark: listed apart in the source
Experimental: as §2

Hs578T [29] = tested on: Hs578T; remark: listed apart in the source
Experimental: as §2

CAL-120 [30] = tested on: CAL-120; remark: listed apart in the source
Experimental: as §2

CAL-85-1 [31] = tested on: CAL-85-1; remark: listed apart in the source
Experimental: as §2

CAL-148 [32] = tested on: CAL-148; remark: listed apart in the source
Experimental: as §2

HCC1937 [33] = tested on: HCC1937; remark: listed apart in the source
Experimental: as §2

MDA-MB-436 [34] = tested on: MDA-MB-436; remark: listed apart in the source
Experimental: as §2

MDA-MB-468 [35] = tested on: MDA-MB-468; remark: listed apart in the source
Experimental: as §2

MDA-MB-231 [36] = tested on: MDA-MB-231; remark: listed apart in the source
Experimental: as §2

`CC(C)(C)Cn1c(N)nc2ccc(-c3[nH]c(C(C)(C)C)nc3-c3ccc(F)cc3)nc21` (1 nM) was tested, and the normalised response (BT-474 [1]) was 98.4%, the normalised response (MDA-MB-453 [2]) was 105% and the normalised response (HCC1599 [3]) was 102%. For the same compound, the normalised response (BT-549 [4]) was 88.4%, the normalised response (CAL-51 [5]) was 113% and the normalised response (MFM-223 [6]) was 103%. For the same compound, the normalised response (HCC1143 [7]) was 67.5%, the normalised response (MCF-10A [8]) was 110% and the normalised response (HDQ-P1 [9]) was 91.6%. For the same compound, the normalised response (DU-4475 [10]) was 105%, the normalised response (Hs578T [11]) was 115% and the normalised response (CAL-120 [12]) was 105%. For the same compound, the normalised response (CAL-85-1 [13]) was 101%, the normalised response (CAL-148 [14]) was 104% and the normalised response (HCC1937 [15]) was 109%. It also gave a normalised response (MDA-MB-468 [16]) of 63.9% and a normalised response (MDA-MB-231 [17]) of 106%.

In the case of `COc1ccc(-c2ccc3c(N4CCOC[C@@H]4C)nc(N4CCOC[C@@H]4C)nc3n2)cc1CO` [AZD8055] (1 nM), the normalised response (BT-474 [1]) is reported as 95.8%, the normalised response (MDA-MB-453 [2]) is reported as 104% and the normalised response (HCC1599 [3]) is reported as 86.5%. The normalised response (BT-549 [4]) was 102%, the normalised response (CAL-51 [5]) was 120% and the normalised response (HCC1143 [7]) was 85.1%. The normalised response (MCF-10A [8]) was 97.8%, the normalised response (HDQ-P1 [9]) was 92.3% and the normalised response (DU-4475 [10]) was 96.7%. For the same compound, the normalised response (Hs578T [11]) was 106%, the normalised response (CAL-120 [12]) was 98.6% and the normalised response (CAL-85-1 [13]) was 98.3%. It also gave a normalised response (CAL-148 [14]) of 100%, a normalised response (HCC1937 [15]) of 106% and a normalised response (MDA-MB-436 [18]) of 77.8%. The normalised response (MDA-MB-231 [17]) was 103%.

`Oc1ncnc2[nH]ncc12` [Allopurinol] (1 nM) gave a normalised response (BT-474 [1]) of 102%, a normalised response (MDA-MB-453 [2]) of 108% and a normalised response (HCC1599 [3]) of 109%. It also gave a normalised response (BT-549 [4]) of 101%, a normalised response (CAL-51 [5]) of 117% and a normalised response (MFM-223 [6]) of 85.4%. The normalised response (HCC1143 [7]) was 79.8%, the normalised response (MCF-10A [8]) was 107% and the normalised response (HDQ-P1 [9]) was 86.2%. The normalised response (DU-4475 [10]) was 103%, the normalised response (Hs578T [11]) was 98.2% and the normalised response (CAL-120 [12]) was 103%. The normalised response (CAL-85-1 [13]) was 101%, the normalised response (CAL-148 [14]) was 102% and the normalised response (HCC1937 [15]) was 86.9%. The normalised response (MDA-MB-468 [16]) was 77.1% and the normalised response (MDA-MB-231 [17]) was 113%.

`Cc1cc2c(F)c(Oc3ncnn4cc(OC[C@@H](C)O)c(C)c34)ccc2[nH]1` [Brivanib] (0.1 nM) gave a normalised response (BT-474 [1]) of 102%, a normalised response (MDA-MB-453 [2]) of 102% and a normalised response (HCC1599 [3]) of 108%. For the same compound, the normalised response (BT-549 [4]) was 99.4%, the normalised response (CAL-51 [5]) was 120% and the normalised response (MFM-223 [6]) was 84.9%. It also gave a normalised response (HCC1143 [7]) of 115%, a normalised response (MCF-10A [8]) of 106% and a normalised response (HDQ-P1 [9]) of 87.8%. The normalised response (DU-4475 [10]) was 106%, the normalised response (Hs578T [11]) was 111% and the normalised response (CAL-120 [12]) was 100%. For the same compound, the normalised response (CAL-85-1 [13]) was 99.2%, the normalised response (CAL-148 [14]) was 101% and the normalised response (HCC1937 [15]) was 91.7%. It also gave a normalised response (MDA-MB-436 [18]) of 97.3% and a normalised response (MDA-MB-231 [17]) of 88.2%.

`CNC(=O)c1cc(Oc2ccc(NC(=O)Nc3cc(C(C)(C)C)nn3-c3ccc4ncccc4c3)c(F)c2)ccn1` [Rebastinib] (0.1 nM) showed a normalised response (BT-474 [1]) of 95.5%, a normalised response (MDA-MB-453 [2]) of 50% and a normalised response (HCC1599 [3]) of 99.9%. The normalised response (BT-549 [4]) was 99%, the normalised response (CAL-51 [5]) was 119% and the normalised response (MFM-223 [6]) was 101%. It also gave a normalised response (HCC1143 [7]) of 119%, a normalised response (MCF-10A [8]) of 110% and a normalised response (HDQ-P1 [9]) of 81.5%. It also gave a normalised response (DU-4475 [10]) of 105%, a normalised response (CAL-120 [12]) of 96.2% and a normalised response (CAL-85-1 [13]) of 110%. For the same compound, the normalised response (CAL-148 [14]) was 100%, the normalised response (HCC1937 [15]) was 104% and the normalised response (MDA-MB-231 [17]) was 114%.

For `O=C1NC(=O)[C@@H](c2cn3c4c(cccc24)CCC3)[C@@H]1c1c[nH]c2ccccc12` [Tivantinib] (1 nM), the normalised response (BT-474 [19]) was 91.1%, the normalised response (MDA-MB-453 [20]) was 99.2% and the normalised response (HCC1599 [21]) was 97%. It also gave a normalised response (BT-549 [22]) of 86.2%, a normalised response (CAL-51 [23]) of 91.5% and a normalised response (MFM-223 [24]) of 88.3%. The normalised response (HCC1143 [25]) was 99.9%, the normalised response (MCF-10A [26]) was 84.2% and the normalised response (HDQ-P1 [27]) was 117%. The normalised response (DU-4475 [28]) was 98.7%, the normalised response (Hs578T [29]) was 110% and the normalised response (CAL-120 [30]) was 98.6%. For the same compound, the normalised response (CAL-85-1 [31]) was 102%, the normalised response (CAL-148 [32]) was 104% and the normalised response (HCC1937 [33]) was 89.3%. The normalised response (MDA-MB-436 [34]) was 97.6%, the normalised response (MDA-MB-468 [35]) was 91.4% and the normalised response (MDA-MB-231 [36]) was 82.2%.

With `CCCCC(=O)OCC(=O)[C@]1(O)Cc2c(O)c3c(c(O)c2[C@@H](O[C@H]2C[C@H](NC(=O)C(F)(F)F)[C@H](O)[C@H](C)O2)C1)C(=O)c1c(OC)cccc1C3=O` [Valrubicin] (5 nM) the normalised response (BT-474 [19]) was 105%, the normalised response (MDA-MB-453 [20]) was 106% and the normalised response (HCC1599 [21]) was 118%. It also gave a normalised response (BT-549 [22]) of 103%, a normalised response (CAL-51 [23]) of 62.2% and a normalised response (MFM-223 [24]) of 107%. For the same compound, the normalised response (HCC1143 [25]) was 111%, the normalised response (MCF-10A [26]) was 55.7% and the normalised response (HDQ-P1 [27]) was 111%. For the same compound, the normalised response (DU-4475 [28]) was 110%, the normalised response (Hs578T [29]) was 100% and the normalised response (CAL-120 [30]) was 101%. For the same compound, the normalised response (CAL-85-1 [31]) was 90.5%, the normalised response (CAL-148 [32]) was 111% and the normalised response (HCC1937 [33]) was 125%. It also gave a normalised response (MDA-MB-436 [34]) of 101%, a normalised response (MDA-MB-468 [35]) of 122% and a normalised response (MDA-MB-231 [36]) of 125%.

From the supplement of paper PMC4862054
